These results are taken from publication PMC8845250.

Results are given in words; binding and its absence hold for the method and conditions named. In cells and extracts the contact can be indirect. Some binding calls cover weakened binding; strength is not graded here.

This assay deals with T1, CDCA8 (human (endogenous in C4-2)) (UniProt Q53HL2).
T1 sequence: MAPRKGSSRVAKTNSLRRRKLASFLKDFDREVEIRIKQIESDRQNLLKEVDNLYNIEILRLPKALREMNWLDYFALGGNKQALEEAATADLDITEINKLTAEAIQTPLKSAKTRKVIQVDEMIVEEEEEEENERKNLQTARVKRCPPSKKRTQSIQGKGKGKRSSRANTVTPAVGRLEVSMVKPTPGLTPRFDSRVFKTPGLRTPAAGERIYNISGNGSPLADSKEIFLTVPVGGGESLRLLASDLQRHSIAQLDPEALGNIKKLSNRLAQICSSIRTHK
The experiment in a line: co-IP; C4-2 whole cell lysate (1.0 mg protein) incubated with CDCA8 antibody (control: IgG) overnight at 4 C, beads 2 h at 4 C, SDS-PAGE and western blot.

B1: UAP1-like-1 (UAP1L1) (protein, UniProt Q3KQV9 1-507)
chain: MASEQDVRARLQRAGQEHLLRFWAELAPEPRAALLAELALLEPEALREHCRRAAEACARPHGPPPDLAARLRPLPPERVGRASRSDPETRRRWEEEGFRQISLNKVAVLLLAGGQGTRLGVTYPKGMYRVGLPSRKTLYQLQAERIRRVEQLAGERHGTRCTVPWYVMTSEFTLGPTAEFFREHNFFHLDPANVVMFEQRLLPAVTFDGKVILERKDKVAMAPDGNGGLYCALEDHKILEDMERRGVEFVHVYCVDNILVRLADPVFIGFCVLQGADCGAKVVEKAYPEEPVGVVCQVDGVPQVVEYSEISPETAQLRASDGSLLYNAGNICNHFFTRGFLKAVTREFEPLLKPHVAVKKVPYVDEEGNLVKPLKPNGIKMEKFVFDVFRFAKNFAALEVLREEEFSPLKNAEPADRDSPRTARQALLTQHYRWALRAGARFLDAHGAWLPELPSLPPNGDPPAICEISPLVSYSGEGLEVYLQGREFQSPLILDEDQAREPQLQES
Take B1: the binding result is “binds”.
